Measured values reported in PubChem BioAssay AID1487 (National Center for Advancing Translational Sciences (NCATS), 2009).
Values joined by “and” are separate entries in the source; they are usually repeats but may differ in a detail not shown here. Identical values can stand only once. The list shows a part of the results. Shown are side measurements of this screen, not its main read-out; they come without a call. Most of these compounds were active or inconclusive in the main read-out, so they are no random draw. Words in brackets tell the shape of the fitted curve; partial curves, single points and poor fits give uncertain potencies.

Experiment: qHTS Assay for Modulators of Lamin A Splicing
Conditions: HeLa LMNA splicing GFP/RFP minigene ratio, 48 h
In short: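 Read-out is the ratio of GFP to DsRed2 object intensity, acquired by 488 nm laser-scanning cytometry on HeLa lamin A-EGFP minigene reporter cells. Compound incubation 48 hrs at 37 °C in Opti-MEM with 2% FBS; DMSO 0.5% final.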

[1] = measured here: GFP splicing reporter channel
[2] = measured here: RFP viability control channel

Compound	AC50 [1]	AC50 [2]
COc1cc(C(=O)NCc2ccc(C)cc2)ccc1OC(F)F	28.2 µM [rising, single point]	
Cc1sc2nc3n(c(=O)c2c1C)Cc1ccccc1-3	0.0316 µM [rising, full curve, poor fit]	0.0251 µM [rising, full curve, poor fit]
S=C1NC2(CCCCC2)Cc2ccccc21		20 µM [rising, single point]
COCCn1c(=NC(=O)/C=C/c2cccs2)sc2cc(NC(C)=O)ccc21		17.8 µM [rising, partial curve, poor fit]
CCOC(=O)C1=C(C)N[C@@]2(O)c3ccccc3C(=O)[C@@]12O	0.02 µM [falling, full curve]	0.02 µM [falling, full curve, poor fit]
CC(=O)NC(NC(=S)Nc1ccc(N=Nc2ccccc2)cc1)C(Cl)(Cl)Cl (stereo unspecified)	35.5 µM [falling, single point]	35.5 µM [falling, single point]
Cc1cccc(N2C(=O)CN(Cc3sccc3C)C2=S)c1		12.6 µM [rising, single point]
C/C(=N\Nc1ccc(C(F)(F)F)cn1)c1ccncc1		1.12 µM [rising, full curve]
Cc1c(Cc2ccccc2)sc(/N=C/c2c(O)ccc3ccccc23)c1C(N)=O	20 µM [rising, single point]	12.6 µM [rising, partial curve]
COc1ccccc1N(CC(O)COc1c(C)cc(C)cc1C)S(=O)(=O)c1ccccc1 (stereo unspecified)	12.6 µM [rising, single point]	22.4 µM [rising, single point]
CC12CC3CC(C)(C1)CC(N)(C3)C2	0.00224 µM [falling, full curve, poor fit]	14.1 µM [rising, single point] and 2.24 nM [falling, full curve, poor fit]
COc1ccc(S(=O)(=O)Nc2ccc(F)c(Cl)c2)cc1OC	12.6 µM [rising, single point]	15.8 µM [rising, single point]
Cc1nc(SCC(=O)Nc2ccc(OCc3ccccc3)cc2)n[nH]1	35.5 µM [falling, partial curve, poor fit]	35.5 µM [falling, single point]
Cc1cc(C)n2nc(-c3ccsc3-n3c(C)ccc3C)cc2n1	17.8 µM [rising, single point]	
CC(=O)Nc1ccc(Nc2c3ccccc3nc3ccccc23)cc1	0.891 µM [falling, partial curve]	
CCN(CC)S(=O)(=O)c1ccc(Cl)c(C(=O)N2CCc3ccccc32)c1		12.6 µM [rising, partial curve]
OCCCN=c1cc(-c2ccccc2)oc2ccc(Cl)cc12		35.5 µM [rising, single point]
C/C(=N\Nc1nc2ccccc2[nH]1)c1ccc(Cl)s1		8.91 µM [rising, partial curve, poor fit]
CC1CCN(S(=O)(=O)c2cc(C(=O)NCc3ccc(N(C)C)cc3)n(C)c2)CC1	0.0126 µM [falling, full curve, poor fit]	
COc1cc2ncnc(NCc3cccs3)c2cc1OC		12.6 µM [falling, partial curve]
CSc1cccc(NC(=O)CN(c2cc(C)ccc2C)S(C)(=O)=O)c1		28.2 µM [rising, single point]
CCOC(=O)Nc1nnc(Cc2ccc(Cl)c(Cl)c2)s1	35.5 µM [rising, single point]	
COc1ccc(C2=C(C)C(=O)N(Cc3ccc(C(=O)Nc4ccc(F)cc4C)cc3)S2(=O)=O)cc1		0.282 µM [rising, full curve]
CCCSc1nc(-n2ncc(C#N)c2N)c2c3c(sc2n1)CCC(C)C3 (stereo unspecified)	12.6 µM [rising, single point]	14.1 µM [rising, single point]
O=C1SCC(c2ccccc2)=NN1Cc1ccccc1		20 µM [rising, single point]
CCn1cc(C(=O)NCc2ccco2)c(=O)c2cc(S(=O)(=O)N3CCCCCC3)ccc21	11.2 µM [rising, partial curve, poor fit]	14.1 µM [rising, partial curve]
CCOC(=O)c1cc(-c2ccccc2)n(CC(=O)NCc2ccc(C)cc2)c1C	0.282 µM [falling, single point]	20 µM [falling, single point]
Cc1nn(Cc2ccc(Cl)cc2)c(C)c1NC(=O)CCCn1nc([N+](=O)[O-])c(Cl)c1C		22.4 µM [rising, partial curve, poor fit]

Compound	AC50 [1]	AC50 [2]
COc1ccc2c(c1)CCN=C2Cc1ccc(OC)c(OC)c1		14.1 µM [rising, single point]
O=[N+]([O-])c1cccc(S(=O)(=O)N2CCCC2)c1		4.47 µM [rising, partial curve]
O=C(CSc1nc2ccccc2[nH]1)N1c2ccccc2Sc2ccccc21		15.8 µM [rising, single point]
Cc1ccccc1NS(=O)(=O)c1ccc(OCC(=O)NCc2cccnc2)cc1		25.1 µM [rising, partial curve, poor fit]
O=C(Nc1nnc(-c2ccco2)o1)c1ccc(Cl)cc1		2.82 µM [rising, single point]
COc1ccc(NC(=O)c2ccccc2C(=O)N2CCCCC2)cc1	35.5 µM [rising, partial curve, poor fit]	35.5 µM [rising, single point]
COc1ccc(CCCC(=O)N/N=C/c2cccc(OC)c2O)cc1C	12.6 µM [rising, partial curve]	14.1 µM [rising, partial curve]
c1ccc(CN(Cc2cccs2)C(c2cccs2)c2nnnn2C2CCCC2)cc1 (stereo unspecified)		20 µM [rising, single point]
O=NCc1ccc([N+](=O)[O-])o1	0.0891 µM [falling, partial curve]	0.794 µM [falling, partial curve, poor fit]
O=[N+]([O-])c1cccc(-c2nnc(CNC3CC3)o2)c1	0.00501 µM [falling, full curve, poor fit]	3.16 µM [falling, partial curve, poor fit]
COC(=O)c1c(-c2cccc3ccccc23)csc1NC(=O)Cc1ccc(OC)c(OC)c1		11.2 µM [rising, partial curve, poor fit]
N#CC1=C(N)S[C@@H](C(=O)c2ccc(F)cc2)[C@@H]1c1cccs1	31.6 µM [rising, single point]	20 µM [rising, single point]
COc1cc(SC)ccc1C(=O)N1CCN(c2ccc(O)cc2)CC1		35.5 µM [rising, single point]
CCCCNC(=S)Nc1ccc(Cl)cc1		20 µM [rising, single point]
Cc1c(Cl)cccc1NC(=O)CSc1nc(=O)[nH]c2c1CCCC2		28.2 µM [falling, partial curve, poor fit]
Cc1cccc(C)c1NC(=O)CCCSc1nnc(-c2ccc(F)cc2)n1-c1ccccc1	3.55 µM [rising, partial curve, poor fit]	22.4 µM [rising, partial curve]
Clc1ccccc1-c1nnc2sc(-c3cccs3)nn12		15.8 µM [rising, single point]
CCn1c2ccccc2c2nnc(SCC(=O)Nc3cc(C)on3)nc21	0.316 µM [rising, partial curve, poor fit]	7.08 µM [rising, partial curve, poor fit]
CCc1nnc(NC(=O)/C=C/c2ccc(C)o2)s1	35.5 µM [rising, single point]	6.31 µM [rising, partial curve, poor fit]
COc1ccc(C2(CNS(=O)(=O)c3ccccc3)CCOCC2)cc1	0.178 µM [rising, full curve, poor fit]	
COc1ccc(S(=O)(=O)NCC2CCCN(C(=O)c3sccc3C)C2)cc1 (stereo unspecified)	28.2 µM [falling, single point]	
CCc1nnc(NC(=O)CSc2nnc(-c3ccccc3NC(=O)c3ccccc3)o2)s1		17.8 µM [rising, partial curve, poor fit]
O=C(Nc1nc(-c2ccc3c(c2)OCO3)cs1)C1CC1		11.2 µM [rising, partial curve, poor fit]
CC(C)(C)NC(=O)[C@@H]1CC[C@@H]2[C@@H]3CC[C@@H]4NC(=O)C=C[C@@]4(C)[C@H]3CC[C@]21C	1.12 µM [falling, single point]	1 µM [falling, single point]
O=C(C[n+]1cc(-c2ccc(Br)cc2)n2c1CCCCC2)c1ccccc1		12.6 µM [rising, single point]
COc1ccccc1CNC(=O)C1CCN(C2=NS(=O)(=O)C(c3ccc(C)c(C)c3)=C2C)CC1	35.5 µM [falling, single point]	20 µM [falling, partial curve, poor fit]
CC(C)Cc1nn2c(=O)cc(COC(=O)c3cccc(NS(C)(=O)=O)c3)nc2s1		0.00447 µM [falling, full curve, poor fit]
